The record followed here is PMC2858655, “Structural and Functional Characterization of Human Peripheral Nervous System Myelin Protein P2” (PLoS ONE, 2010).

Chains of the proteins cited; added tags and fusions are not shown.
UniProt P02689: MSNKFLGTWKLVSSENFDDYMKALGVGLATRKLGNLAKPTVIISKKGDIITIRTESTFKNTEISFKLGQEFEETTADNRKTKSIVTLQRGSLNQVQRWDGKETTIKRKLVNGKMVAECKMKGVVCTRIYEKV

No constants are given. Whether binding was seen depends on the method and setting.

Assay [1] has as its target recombinant human myelin P2 protein (human) (UniProt P02689). Put plainly: SEC; final gel filtration on Superdex 75 16/60 in 20 mM HEPES pH 7.5, 50 mM NaCl, 10% glycerol; single peak; apparent molecular weight 15 kDa; both purified. A general note: SEC sorts molecules by how far they enter the pores of the column.
Assay [2] shares this target. The experiment in a line: condition: up to 4 mg/ml (methods); 4.4 mg/ml (legend of Figure 3); SAXS; 50 mM HEPES pH 7.5, 150 mM NaCl, 10% glycerol; concentrations up to 4 mg/ml; beamline X33, EMBL-Hamburg; both purified.

On to “recombinant human myelin P2 protein (from UniProt P02689 1-132)”, for which the binding result in assay [1] and in assay [2] was “no binding” in each case.
